Results published in paper PMC3009610.
Results are given in words; binding and its absence hold for the method and conditions named. For some assays here: Binding seen in cells or lysates may run through a third protein. Some results given as binding are weak or reduced against the parent protein; the word gives no strength. For some assays here: Sequences can lack the tags named with a protein. Blank lines part the entries; values can stand above or below the molecule they belong to.

Sequences of proteins named here, by UniProt entry; tags and fusion partners are left off.
UniProt P09760: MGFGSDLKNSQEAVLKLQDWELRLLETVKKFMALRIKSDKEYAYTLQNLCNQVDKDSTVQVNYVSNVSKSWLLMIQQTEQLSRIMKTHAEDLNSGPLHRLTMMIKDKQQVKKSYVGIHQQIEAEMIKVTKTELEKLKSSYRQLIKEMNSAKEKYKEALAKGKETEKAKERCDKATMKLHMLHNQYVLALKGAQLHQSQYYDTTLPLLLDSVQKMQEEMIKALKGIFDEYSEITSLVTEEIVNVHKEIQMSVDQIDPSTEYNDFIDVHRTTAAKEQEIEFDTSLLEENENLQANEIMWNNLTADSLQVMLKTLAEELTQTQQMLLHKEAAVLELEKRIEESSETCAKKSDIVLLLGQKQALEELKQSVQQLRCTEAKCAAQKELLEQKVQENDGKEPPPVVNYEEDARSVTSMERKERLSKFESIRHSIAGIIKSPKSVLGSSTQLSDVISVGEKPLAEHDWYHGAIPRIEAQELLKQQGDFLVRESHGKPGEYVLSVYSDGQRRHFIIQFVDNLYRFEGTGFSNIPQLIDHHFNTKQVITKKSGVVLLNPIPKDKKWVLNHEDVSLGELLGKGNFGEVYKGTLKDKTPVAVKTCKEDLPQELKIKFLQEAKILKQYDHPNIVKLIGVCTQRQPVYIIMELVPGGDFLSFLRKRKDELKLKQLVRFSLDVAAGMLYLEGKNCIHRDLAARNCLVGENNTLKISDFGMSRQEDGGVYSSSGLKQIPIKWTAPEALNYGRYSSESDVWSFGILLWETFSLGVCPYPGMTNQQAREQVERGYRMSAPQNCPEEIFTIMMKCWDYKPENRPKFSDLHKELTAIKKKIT

Columns and labels:
[1] = target: T1, RhoGDIα on far-Western blots (UniProt P52565); assay: far-Western, overlay or dot blot; isolated Fer SH2 domain on far-Western blots of RhoGDIα; not shown
T1 sequence: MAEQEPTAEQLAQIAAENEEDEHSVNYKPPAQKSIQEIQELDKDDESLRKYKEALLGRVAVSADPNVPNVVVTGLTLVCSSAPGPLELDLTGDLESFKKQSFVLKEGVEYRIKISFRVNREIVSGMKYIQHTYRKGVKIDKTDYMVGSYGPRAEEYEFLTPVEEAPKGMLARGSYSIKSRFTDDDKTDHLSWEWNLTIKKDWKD

[2] = target: T2, endogenous RhoGDIα (RBL-2H3 mast cells) (rat (endogenous in RBL-2H3)) (UniProt Q5XI73); assay: co-IP; endogenous proteins in RBL-2H3 mast cell lysates; Fer antibodies from Abcam, RhoGDIα antibodies from Santa Cruz
T2 sequence: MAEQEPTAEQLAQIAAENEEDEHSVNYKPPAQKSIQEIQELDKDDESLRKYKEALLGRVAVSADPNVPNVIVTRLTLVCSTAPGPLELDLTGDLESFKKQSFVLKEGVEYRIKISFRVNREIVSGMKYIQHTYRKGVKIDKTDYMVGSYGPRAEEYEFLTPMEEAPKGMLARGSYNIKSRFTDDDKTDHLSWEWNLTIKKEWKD

[3] = target: T3, RhoGDIα (Rho GDP-dissociation inhibitor α), transfected (UniProt P52565); assay: co-IP; COS-1 cells transfected with pEGFP-Fer (WT or MT) with or without RhoGDIα; IP with RhoGDIα antibodies or with Fer monoclonal rat antiserum, immunoblot; also after pervanadate (0.5 mM H2O2 + 0.5 mM vanadate, 5 min) in Figure 3A
T3 sequence: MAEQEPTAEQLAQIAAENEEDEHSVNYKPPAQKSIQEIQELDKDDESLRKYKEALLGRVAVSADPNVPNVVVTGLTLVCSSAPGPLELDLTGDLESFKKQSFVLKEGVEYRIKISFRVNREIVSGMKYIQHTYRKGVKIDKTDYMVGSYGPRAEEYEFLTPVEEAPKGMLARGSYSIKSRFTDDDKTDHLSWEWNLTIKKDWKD

[4] = target: T4, pEGFP-Fer (MT D742R), kinase dead mutant (UniProt P16591); assay: as above
T4 sequence: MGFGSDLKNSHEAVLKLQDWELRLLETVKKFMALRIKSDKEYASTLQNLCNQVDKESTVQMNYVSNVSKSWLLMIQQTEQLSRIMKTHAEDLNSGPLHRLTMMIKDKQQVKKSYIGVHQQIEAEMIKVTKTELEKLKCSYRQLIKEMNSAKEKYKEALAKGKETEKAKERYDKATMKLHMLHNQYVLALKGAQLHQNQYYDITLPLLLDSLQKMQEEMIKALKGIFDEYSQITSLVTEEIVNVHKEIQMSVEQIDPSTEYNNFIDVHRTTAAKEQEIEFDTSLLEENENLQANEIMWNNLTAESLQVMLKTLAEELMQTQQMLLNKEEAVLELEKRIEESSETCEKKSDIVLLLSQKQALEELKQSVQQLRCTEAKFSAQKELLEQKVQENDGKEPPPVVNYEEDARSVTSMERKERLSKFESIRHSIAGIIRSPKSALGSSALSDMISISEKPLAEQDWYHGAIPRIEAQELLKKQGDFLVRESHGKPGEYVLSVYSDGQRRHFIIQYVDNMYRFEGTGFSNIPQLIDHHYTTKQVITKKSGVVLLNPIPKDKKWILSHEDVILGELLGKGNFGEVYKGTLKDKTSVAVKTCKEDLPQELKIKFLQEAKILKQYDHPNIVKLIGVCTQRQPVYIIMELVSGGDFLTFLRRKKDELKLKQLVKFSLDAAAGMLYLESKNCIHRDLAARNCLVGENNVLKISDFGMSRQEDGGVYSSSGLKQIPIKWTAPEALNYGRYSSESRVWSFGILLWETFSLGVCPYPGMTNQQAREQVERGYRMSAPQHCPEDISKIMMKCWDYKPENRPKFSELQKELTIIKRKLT

[5] = target: pEGFP-Fer (wild type, WT) (UniProt P16591); assay: as above

- binding [1]: binds
Molecule: isolated Fer SH2 domain (from UniProt P16591 460-550) (domain or fragment)

- binding [2]: binds
Molecule: endogenous Fer (RBL-2H3 mast cells) (from UniProt P09760 1-823) (enzyme)

- binding [3]: binds
Molecule: pEGFP-Fer (wild type, WT) (from UniProt P16591 1-822) (enzyme)

- binding [4]: binds
- binding [5]: binds
B1: RhoGDIα (Rho GDP-dissociation inhibitor α), transfected (protein, UniProt P52565 1-204)
chain: MAEQEPTAEQLAQIAAENEEDEHSVNYKPPAQKSIQEIQELDKDDESLRKYKEALLGRVAVSADPNVPNVVVTGLTLVCSSAPGPLELDLTGDLESFKKQSFVLKEGVEYRIKISFRVNREIVSGMKYIQHTYRKGVKIDKTDYMVGSYGPRAEEYEFLTPVEEAPKGMLARGSYSIKSRFTDDDKTDHLSWEWNLTIKKDWKD
